The values below come from PMC4706560.

No constants are given. Whether binding was seen depends on the method and setting. Binding seen in cells or lysates may run through a third protein. Binding can be weak; no strength is given.

In the assay the target is T1, Desmoglein 3 (human (endogenous in HaCaT)) (UniProt P32926).
T1 sequence: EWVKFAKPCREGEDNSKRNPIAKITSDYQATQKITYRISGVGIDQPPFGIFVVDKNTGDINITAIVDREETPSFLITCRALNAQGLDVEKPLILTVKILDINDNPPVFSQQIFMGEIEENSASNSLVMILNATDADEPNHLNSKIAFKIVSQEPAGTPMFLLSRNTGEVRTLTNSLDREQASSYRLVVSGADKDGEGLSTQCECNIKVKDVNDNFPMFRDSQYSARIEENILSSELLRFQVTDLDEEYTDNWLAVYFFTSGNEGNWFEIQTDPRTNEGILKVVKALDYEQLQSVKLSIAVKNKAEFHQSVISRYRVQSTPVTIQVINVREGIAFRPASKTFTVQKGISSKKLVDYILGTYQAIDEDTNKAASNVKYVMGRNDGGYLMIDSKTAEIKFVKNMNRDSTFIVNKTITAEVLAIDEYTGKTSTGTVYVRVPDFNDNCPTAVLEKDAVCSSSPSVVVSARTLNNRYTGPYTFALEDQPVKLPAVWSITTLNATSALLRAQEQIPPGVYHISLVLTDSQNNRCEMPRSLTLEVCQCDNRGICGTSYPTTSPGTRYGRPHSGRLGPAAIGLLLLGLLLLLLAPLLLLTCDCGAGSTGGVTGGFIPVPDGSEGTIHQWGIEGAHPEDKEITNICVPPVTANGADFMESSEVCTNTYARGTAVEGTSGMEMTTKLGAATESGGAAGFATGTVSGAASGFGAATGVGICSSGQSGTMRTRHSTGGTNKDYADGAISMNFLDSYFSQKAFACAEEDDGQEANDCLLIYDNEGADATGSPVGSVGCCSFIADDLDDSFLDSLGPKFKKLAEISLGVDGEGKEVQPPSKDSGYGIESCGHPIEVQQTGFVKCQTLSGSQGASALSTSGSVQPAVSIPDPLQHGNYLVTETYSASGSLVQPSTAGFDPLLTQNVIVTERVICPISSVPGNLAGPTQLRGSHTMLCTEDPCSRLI
Briefly: co-IP; immunoprecipitation with mouse antibody against Dsg3 from Triton X-100-soluble and -insoluble fractions of HaCaT cells, 500 µg protein of each fraction; Western blotting.

Turning to “E-cadherin (human (endogenous in HaCaT))”, the binding entry is on record as “binds”.
